Test results as given in the supplement of paper PMC12819154, “High-throughput peptide-centric local stability assay extends protein–ligand identification to membrane proteins, tissues and bacteria” (Nature Structural & Molecular Biology, 2025).
This is one part of the list. Most entries show no effect beyond the scatter of the controls.

Protein sequences, listed by entry. Tags and fused reporters are not part of them. Lines headed by an entry give the natural chain unless they say otherwise; changes in a name come on top.
UniProt P51949: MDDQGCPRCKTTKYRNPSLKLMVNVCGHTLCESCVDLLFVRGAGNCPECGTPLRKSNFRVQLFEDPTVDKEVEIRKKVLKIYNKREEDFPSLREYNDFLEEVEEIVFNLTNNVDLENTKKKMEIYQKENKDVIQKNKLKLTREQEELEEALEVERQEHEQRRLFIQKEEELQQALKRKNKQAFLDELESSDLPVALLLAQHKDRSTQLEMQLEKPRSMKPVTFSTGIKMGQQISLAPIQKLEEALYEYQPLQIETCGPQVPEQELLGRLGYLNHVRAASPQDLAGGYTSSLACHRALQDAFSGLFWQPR
UniProt P48678: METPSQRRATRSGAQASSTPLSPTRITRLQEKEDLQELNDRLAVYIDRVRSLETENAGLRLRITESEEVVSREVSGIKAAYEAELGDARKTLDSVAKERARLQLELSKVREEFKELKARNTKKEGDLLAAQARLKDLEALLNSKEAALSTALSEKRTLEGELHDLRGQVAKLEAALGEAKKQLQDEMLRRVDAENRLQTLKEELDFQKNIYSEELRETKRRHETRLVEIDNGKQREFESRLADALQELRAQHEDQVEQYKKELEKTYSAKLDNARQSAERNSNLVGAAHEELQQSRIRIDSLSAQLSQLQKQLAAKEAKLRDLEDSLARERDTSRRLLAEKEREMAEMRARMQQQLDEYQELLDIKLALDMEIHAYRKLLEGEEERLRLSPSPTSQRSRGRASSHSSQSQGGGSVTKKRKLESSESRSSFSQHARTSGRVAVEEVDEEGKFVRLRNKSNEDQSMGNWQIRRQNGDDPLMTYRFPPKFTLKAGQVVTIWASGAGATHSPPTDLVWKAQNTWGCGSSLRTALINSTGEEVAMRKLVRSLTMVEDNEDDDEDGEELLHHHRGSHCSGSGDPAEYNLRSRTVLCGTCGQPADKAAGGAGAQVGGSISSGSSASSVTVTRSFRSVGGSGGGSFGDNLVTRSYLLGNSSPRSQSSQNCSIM
UniProt P31001, whole entry: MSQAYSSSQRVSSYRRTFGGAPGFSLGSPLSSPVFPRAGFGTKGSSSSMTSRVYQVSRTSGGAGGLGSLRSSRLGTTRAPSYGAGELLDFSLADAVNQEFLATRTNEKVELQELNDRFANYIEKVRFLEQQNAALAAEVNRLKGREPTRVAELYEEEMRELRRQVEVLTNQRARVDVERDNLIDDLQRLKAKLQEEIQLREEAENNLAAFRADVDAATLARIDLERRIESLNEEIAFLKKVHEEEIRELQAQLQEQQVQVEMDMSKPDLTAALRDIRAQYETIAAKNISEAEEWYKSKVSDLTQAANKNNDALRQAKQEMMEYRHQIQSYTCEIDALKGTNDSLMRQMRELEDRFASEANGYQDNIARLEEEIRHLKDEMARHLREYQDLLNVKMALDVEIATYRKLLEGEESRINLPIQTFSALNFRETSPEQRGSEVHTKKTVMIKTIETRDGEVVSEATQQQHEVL
UniProt P35292: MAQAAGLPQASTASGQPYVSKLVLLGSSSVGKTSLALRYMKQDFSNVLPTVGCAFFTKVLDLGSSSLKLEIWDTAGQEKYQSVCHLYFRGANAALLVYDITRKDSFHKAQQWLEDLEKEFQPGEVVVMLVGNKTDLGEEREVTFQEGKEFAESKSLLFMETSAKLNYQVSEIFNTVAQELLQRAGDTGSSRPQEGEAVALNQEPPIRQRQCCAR
UniProt P50396: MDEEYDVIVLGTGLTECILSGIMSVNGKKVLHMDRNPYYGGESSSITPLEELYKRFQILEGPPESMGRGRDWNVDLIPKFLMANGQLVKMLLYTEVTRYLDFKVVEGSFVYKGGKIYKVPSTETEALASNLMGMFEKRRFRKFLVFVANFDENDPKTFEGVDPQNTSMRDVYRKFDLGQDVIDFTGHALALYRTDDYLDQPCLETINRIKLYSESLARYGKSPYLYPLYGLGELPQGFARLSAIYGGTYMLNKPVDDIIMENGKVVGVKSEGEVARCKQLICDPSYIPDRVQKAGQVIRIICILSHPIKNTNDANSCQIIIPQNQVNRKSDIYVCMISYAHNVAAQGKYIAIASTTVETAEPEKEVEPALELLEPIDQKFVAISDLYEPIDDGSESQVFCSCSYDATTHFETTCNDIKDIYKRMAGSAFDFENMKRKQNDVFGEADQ
UniProt P35585: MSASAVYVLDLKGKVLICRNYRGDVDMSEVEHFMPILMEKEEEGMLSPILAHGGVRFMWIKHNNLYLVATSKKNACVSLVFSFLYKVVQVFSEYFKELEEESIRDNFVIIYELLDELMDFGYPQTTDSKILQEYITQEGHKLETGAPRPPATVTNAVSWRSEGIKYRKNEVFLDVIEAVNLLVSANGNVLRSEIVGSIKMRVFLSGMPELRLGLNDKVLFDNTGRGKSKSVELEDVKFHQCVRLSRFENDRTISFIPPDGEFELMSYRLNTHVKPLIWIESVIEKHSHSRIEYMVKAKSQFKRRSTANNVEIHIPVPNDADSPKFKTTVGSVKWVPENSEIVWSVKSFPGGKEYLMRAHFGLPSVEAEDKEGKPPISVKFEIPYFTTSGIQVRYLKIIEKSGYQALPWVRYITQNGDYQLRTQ
UniProt P56542: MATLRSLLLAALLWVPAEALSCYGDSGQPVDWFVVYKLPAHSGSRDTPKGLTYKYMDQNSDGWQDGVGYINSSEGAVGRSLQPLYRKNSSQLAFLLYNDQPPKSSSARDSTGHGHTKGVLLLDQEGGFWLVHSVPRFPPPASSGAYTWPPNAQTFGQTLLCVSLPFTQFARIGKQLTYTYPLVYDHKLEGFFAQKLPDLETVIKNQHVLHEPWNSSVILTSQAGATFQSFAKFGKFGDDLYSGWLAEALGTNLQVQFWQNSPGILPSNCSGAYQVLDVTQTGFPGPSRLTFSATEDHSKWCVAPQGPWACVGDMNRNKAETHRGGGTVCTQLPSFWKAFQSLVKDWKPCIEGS
UniProt P46735: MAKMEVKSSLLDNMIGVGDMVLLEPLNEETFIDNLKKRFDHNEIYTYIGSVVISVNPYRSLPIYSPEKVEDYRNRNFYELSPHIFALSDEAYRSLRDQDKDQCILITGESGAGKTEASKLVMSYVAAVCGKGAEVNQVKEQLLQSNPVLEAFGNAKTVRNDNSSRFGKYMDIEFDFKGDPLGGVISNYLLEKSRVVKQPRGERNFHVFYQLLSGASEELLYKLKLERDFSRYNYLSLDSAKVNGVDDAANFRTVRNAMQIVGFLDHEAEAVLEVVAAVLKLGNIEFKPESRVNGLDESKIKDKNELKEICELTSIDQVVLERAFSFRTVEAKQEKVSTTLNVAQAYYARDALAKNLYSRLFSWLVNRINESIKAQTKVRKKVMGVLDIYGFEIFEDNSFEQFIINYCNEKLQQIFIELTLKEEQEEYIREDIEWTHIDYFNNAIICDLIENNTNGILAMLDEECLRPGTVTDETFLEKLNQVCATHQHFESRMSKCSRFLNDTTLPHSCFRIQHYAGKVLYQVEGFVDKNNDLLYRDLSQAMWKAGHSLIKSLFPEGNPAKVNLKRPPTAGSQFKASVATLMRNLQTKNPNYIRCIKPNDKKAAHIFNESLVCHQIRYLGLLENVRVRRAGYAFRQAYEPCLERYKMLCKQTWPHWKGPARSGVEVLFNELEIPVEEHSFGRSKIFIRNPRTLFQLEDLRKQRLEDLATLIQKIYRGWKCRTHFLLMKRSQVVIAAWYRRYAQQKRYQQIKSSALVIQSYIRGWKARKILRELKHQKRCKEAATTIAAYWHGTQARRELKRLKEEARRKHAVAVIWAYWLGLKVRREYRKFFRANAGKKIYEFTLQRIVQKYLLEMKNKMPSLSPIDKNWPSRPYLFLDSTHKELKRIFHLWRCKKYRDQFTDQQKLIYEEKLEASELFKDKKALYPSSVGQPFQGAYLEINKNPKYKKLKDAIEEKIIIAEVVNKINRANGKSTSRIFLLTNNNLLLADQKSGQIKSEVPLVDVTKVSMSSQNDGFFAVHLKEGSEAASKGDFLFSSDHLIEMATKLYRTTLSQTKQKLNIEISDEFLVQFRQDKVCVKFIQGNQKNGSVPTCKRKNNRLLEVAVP
UniProt P40936: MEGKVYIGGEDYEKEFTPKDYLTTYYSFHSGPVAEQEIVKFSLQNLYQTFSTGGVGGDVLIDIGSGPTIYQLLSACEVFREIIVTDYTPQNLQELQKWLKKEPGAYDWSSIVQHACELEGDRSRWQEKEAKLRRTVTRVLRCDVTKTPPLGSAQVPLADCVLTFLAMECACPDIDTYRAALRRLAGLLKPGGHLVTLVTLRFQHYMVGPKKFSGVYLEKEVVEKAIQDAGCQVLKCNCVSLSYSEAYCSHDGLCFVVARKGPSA
UniProt P49312: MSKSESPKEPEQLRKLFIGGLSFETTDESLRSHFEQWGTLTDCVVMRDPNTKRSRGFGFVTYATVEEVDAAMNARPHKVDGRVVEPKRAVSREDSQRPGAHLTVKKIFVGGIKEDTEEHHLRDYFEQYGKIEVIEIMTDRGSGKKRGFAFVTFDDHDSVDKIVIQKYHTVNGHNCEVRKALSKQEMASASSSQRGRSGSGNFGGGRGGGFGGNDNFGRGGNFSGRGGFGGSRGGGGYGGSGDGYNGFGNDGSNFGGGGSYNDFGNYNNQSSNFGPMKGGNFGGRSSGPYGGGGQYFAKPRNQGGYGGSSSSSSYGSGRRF
UniProt P52480: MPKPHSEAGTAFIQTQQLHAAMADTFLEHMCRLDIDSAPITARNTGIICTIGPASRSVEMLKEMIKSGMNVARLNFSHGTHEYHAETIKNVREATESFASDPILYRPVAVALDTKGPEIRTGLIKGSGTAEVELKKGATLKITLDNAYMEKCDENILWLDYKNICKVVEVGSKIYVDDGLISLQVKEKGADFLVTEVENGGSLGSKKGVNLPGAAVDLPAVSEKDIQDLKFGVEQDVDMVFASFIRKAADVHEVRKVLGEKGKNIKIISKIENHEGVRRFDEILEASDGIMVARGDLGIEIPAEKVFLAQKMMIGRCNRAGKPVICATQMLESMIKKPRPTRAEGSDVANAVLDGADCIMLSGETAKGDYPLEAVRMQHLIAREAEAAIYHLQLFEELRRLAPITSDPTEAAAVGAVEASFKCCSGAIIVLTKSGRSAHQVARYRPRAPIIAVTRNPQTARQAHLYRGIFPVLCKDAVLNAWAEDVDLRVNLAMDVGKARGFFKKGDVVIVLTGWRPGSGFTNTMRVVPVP
UniProt P48771: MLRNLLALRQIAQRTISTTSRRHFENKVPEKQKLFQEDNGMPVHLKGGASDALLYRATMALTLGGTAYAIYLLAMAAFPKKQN
UniProt P54869: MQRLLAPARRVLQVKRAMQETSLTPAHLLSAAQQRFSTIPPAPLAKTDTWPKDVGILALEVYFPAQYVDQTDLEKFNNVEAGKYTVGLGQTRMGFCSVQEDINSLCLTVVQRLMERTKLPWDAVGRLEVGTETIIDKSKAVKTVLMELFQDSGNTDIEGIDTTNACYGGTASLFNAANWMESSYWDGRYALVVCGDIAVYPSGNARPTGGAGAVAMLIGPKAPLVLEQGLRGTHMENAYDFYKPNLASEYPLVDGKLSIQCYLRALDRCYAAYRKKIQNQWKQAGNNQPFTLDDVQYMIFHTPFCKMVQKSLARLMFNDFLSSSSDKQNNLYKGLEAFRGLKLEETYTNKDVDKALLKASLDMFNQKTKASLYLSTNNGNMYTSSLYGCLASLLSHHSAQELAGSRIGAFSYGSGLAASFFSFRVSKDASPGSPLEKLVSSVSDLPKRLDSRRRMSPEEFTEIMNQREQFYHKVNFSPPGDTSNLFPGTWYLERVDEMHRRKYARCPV
UniProt P31651: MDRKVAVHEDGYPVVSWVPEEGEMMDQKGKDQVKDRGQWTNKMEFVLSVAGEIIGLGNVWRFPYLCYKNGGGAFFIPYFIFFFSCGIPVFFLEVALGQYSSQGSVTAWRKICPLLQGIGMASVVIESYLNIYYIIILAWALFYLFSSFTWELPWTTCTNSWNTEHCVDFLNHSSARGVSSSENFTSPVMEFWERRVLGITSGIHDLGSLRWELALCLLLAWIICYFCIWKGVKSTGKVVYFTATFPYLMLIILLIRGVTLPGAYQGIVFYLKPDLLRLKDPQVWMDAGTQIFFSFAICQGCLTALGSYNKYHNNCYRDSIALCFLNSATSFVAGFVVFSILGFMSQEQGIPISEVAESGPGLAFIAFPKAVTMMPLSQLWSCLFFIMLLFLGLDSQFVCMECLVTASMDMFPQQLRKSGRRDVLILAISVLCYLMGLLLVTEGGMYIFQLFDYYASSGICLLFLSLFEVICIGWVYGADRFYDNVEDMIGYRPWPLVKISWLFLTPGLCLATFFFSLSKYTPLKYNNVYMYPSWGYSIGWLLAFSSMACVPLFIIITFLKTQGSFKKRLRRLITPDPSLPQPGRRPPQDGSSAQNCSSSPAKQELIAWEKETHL
UniProt P35282: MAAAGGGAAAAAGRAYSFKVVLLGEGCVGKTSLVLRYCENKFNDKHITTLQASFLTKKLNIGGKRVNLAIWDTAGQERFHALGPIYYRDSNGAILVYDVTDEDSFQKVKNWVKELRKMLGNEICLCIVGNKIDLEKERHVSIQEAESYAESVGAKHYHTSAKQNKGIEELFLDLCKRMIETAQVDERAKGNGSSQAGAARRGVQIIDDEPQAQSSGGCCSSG

These targets were tested with CN[C@@H]1C[C@H]2O[C@@](C)([C@@H]1OC)n1c3ccccc3c3c4c(c5c6ccccc6n2c5c31)C(=O)NC4 [staurosporine] (assay: log2 fold change of pooled soluble protein (PISA), ligand vs vehicle (log2 ratio); higher = more thermally stabilized). Conditions: ligand concentration: 20 uM; assay format: PISA pool 52.9/55.5/58.6 C.

Target	log2 fold change of pooled soluble protein
UniProt P46978	0.00805
UniProt P47857	0.0218
UniProt P51949	-0.0396
UniProt P35601	0.208
UniProt P48678	0.0049
UniProt P47962	-0.341
UniProt P29699	-0.128
UniProt P31001	-0.0218
UniProt P53994	-0.061
UniProt P56376	0.0327
UniProt P35292	-0.0456
UniProt P55292	-0.084
UniProt P35917	-0.223
UniProt P50396	0.228
UniProt P42567	-0.0297
UniProt P52792	0.00895
UniProt P35585	-0.00789
UniProt P54775	0.027
UniProt P46460	-0.0184

Some of the entries so far, in markdown.

| Target | log2 fold change of pooled soluble protein |
| --- | --- |
| UniProt P35292 | -0.0456 |
| UniProt P55292 | -0.084 |
| UniProt P35917 | -0.223 |

Further records follow:

Target	log2 fold change of pooled soluble protein
UniProt P43006	0.0408
UniProt P56542	-0.172
UniProt P46735	-0.385
UniProt P40936	0.0994
UniProt P49312	-0.0725
UniProt P32921	-0.019
UniProt P52795	-0.167
UniProt P52480	0.1
UniProt P43120	-0.11
UniProt P35979	0.157
UniProt P48771	0.215
UniProt P56212	0.0902
UniProt P54823	0.295
UniProt P54869	-0.0324
UniProt P56135	0.184
UniProt P31651	0.176
UniProt P50285	0.102
UniProt P35282	-0.152
